# Test results taken from PubChem BioAssay AID445 (National Center for Advancing Translational Sciences (NCATS), 2006).
# Where “and” joins values, the source holds several entries; their conditions need not be identical. Equal entries are not always repeated. Some of the results follow. Shown are side measurements of this screen, not its main read-out; they come without a call. The list favours compounds with an active or inconclusive main result. Potencies come from curve fits of mixed quality, noted in brackets.
# Assay: IkB Signaling
# Details: ABC-DLBCL IkBa-CBG/CBR dual luciferase ratio (green luciferase fused to IkBa over red control in OCI-Ly3 lymphoma cells), 4 h
# How it was run: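 In this assay, an IκBα–CBG68 fusion accumulates when IKK-driven degradation is blocked; native CBR normalizes for cell number. OCI-Ly3 cells were treated 4 h with compound and doxycycline, then green and red light read after Chroma-Glo addition.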
# [1] = measured here: control luc red channel unless noted
structure (smiles),measurement,setting,value
O=C(O)c1cccnc1Nc1cccc(C(F)(F)F)c1,AC50,measured here: IkB-luc green channel,"5.01 µM [rising, partial curve, poor fit]"
same,AC50,measured here: control luc red channel,"10 µM [falling, full curve] and 7.94 µM [falling, partial curve]"
COc1ccccc1CNC(=O)C(C)n1c(=O)cc(C(F)(F)F)c2c(C)nn(C)c21 (stereo not given),AC50,[1],"10 µM [falling, partial curve]"
CCOc1cccc(NC(=O)C2CCCN(S(=O)(=O)c3ccc(OC)cc3)C2)c1 (stereo not given),AC50,[1],"31.6 µM [falling, single point]"
Cc1ccc(C)c(CSc2nc3ccncc3n2Cc2nc(-c3ccccc3Cl)oc2C)c1,AC50,[1],"6.31 µM [falling, partial curve]"
Cc1ccc(S(=O)Cc2nc(-c3ccc(C(=O)NC(C)c4ccccc4)cc3)oc2C)cc1 (stereo not given),AC50,[1],"12.6 µM [falling, partial curve]"
COC(=O)c1ccc(C(=O)OC)c(NC(=O)c2c(-c3ccccc3)c(-c3ccccc3)nn(C)c2=O)c1,AC50,[1],"39.8 µM [falling, single point]"
Cc1ccc2c(c1)nc(SCC(O)c1ccc(Br)cc1)n2C (stereo not given),AC50,[1],"25.1 µM [falling, partial curve]"
CC(=O)Nc1cccc(-c2nc3ccccc3c(=O)o2)c1,AC50,[1],"15.8 µM [falling, partial curve]"
COc1ccc(-n2c(=O)c3sc4ccccc4c3n(Cc3ccccc3)c2=O)cc1,AC50,[1],"3.98 µM [rising, single point]"
Cc1ccc2c(CNC3CCC(C)CC3)c(C(=O)O)n(Cc3cccc(F)c3)c2c1 (stereo not given),AC50,[1],"25.1 µM [falling, partial curve]"
CC(=O)c1cccc(NC(=O)Cn2c(C)c3cnn(-c4ccccc4)c(=O)c3c2C)c1,AC50,[1],"20 µM [falling, single point]"
CC1CCN(c2nc3ccc(C(=O)NCc4ccc(Cl)cc4)cc3s2)CC1,AC50,[1],"2.51 µM [falling, partial curve]"
COc1ccc(C2CC(=O)N(CC(=O)Nc3ccc(C(F)(F)F)cc3)c3ccccc3S2)cc1 (stereo not given),AC50,[1],"3.98 µM [falling, partial curve]"
CN(Cc1ccccc1)c1nc2c(c(=O)n(C)c(=O)n2C)n1CCCc1ccccc1,AC50,[1],"25.1 µM [falling, partial curve]"
COC(=O)c1ccc(OC)c(Cn2c(=O)n(-c3ccc(C)cc3)c(=O)c3c2cnn3C)c1,AC50,[1],"15.8 µM [falling, partial curve]"
COc1ccc(C(=O)Nc2ccc3nc(SCC(=O)N4CCOCC4)sc3c2)cc1,AC50,[1],"6.31 µM [falling, partial curve]"
CCOC(=O)C1=C(CNCCc2ccc(Cl)cc2)NC(=O)NC1c1ccc2c(c1)OCO2 (stereo not given),AC50,[1],"25.1 µM [falling, single point]"
O=C(Cn1c(=O)nc(-c2ccccc2)c2cc(Cl)ccc21)NCCCc1ccccc1,AC50,[1],"15.8 µM [falling, partial curve]"
COc1cc2nc(N3CCN(C(=O)[C@H]4COc5ccccc5O4)CC3)nc(N)c2cc1OC,AC50,[1],"39.8 µM [falling, partial curve, poor fit] [measured here: IkB-luc green channel]"
COc1cccc(CNC(=O)c2c3c(nc4ccccc24)C(=O)N(C2CCCCC2)C3)c1,AC50,[1],"25.1 µM [falling, partial curve]"
COc1ccc(-c2nc(SCC(=O)N3CCC(C)CC3)n[nH]2)cc1,AC50,[1],"39.8 µM [falling, single point]"
Cc1ccc(Cl)cc1NC(=O)/C(C#N)=C\c1cn(Cc2ccc(F)cc2)c2ccccc12,AC50,[1],"0.631 µM [falling, full curve, poor fit]"
Fc1ccc(CNc2cc(-c3ccccc3)nc3nncn23)cc1,AC50,[1],"20 µM [falling, partial curve]"
Cc1ccccc1C(=O)Nc1ccc2nc(SCCOc3ccccc3)sc2c1,AC50,[1],"0.794 µM [falling, partial curve]"
CCOC(=O)c1c(S(=O)(=O)NCC(=O)NCc2ccc(C)cc2)c(C)n(C)c1C,AC50,[1],"0.0158 µM [falling, full curve, poor fit]"
O=C(NCc1ccc(F)cc1)c1cc2c(s1)-c1ccccc1SC2,AC50,[1],"12.6 µM [falling, partial curve]"
O=C(CCCn1c(=O)c2ccccc2n(CC(=O)Nc2ccc(F)cc2F)c1=O)NCc1ccccc1Cl,AC50,[1],"12.6 µM [falling, partial curve]"
CCOc1ncccc1C(=O)OCc1cc(=O)oc2c(C)c(C)ccc12,AC50,[1],"0.0794 µM [falling, full curve]"
CCCCOC(=O)c1ccc(NC(=O)/C(C#N)=C/c2ccc(-c3ccccc3)o2)cc1,AC50,[1],"0.398 µM [falling, full curve]"
COc1ccc(S(=O)(=O)c2ccc(OC)c(OC)c2)cc1OC,AC50,[1],"15.8 µM [rising, partial curve]"
CN(C)c1ccc(CNC(=O)C(Cc2ccccc2)NS(=O)(=O)c2ccc3c(c2)oc(=O)n3C)cc1 (stereo not given),AC50,[1],"25.1 µM [falling, single point]"
O=S(=O)(CC(CN1CCCC1)N1CCCC1)c1ccc2ccccc2c1 (stereo not given),AC50,[1],"0.398 µM [falling, full curve]"
Cc1ccc(S(=O)(=O)Nc2cccc(-c3cn4ccsc4n3)c2)cc1,AC50,[1],"12.6 µM [falling, partial curve]"
CN1C(=O)c2ccccc2Sc2ccc(NC(=O)COc3ccc(Cl)cc3)cc21,AC50,[1],"20 µM [falling, partial curve]"
Cc1ccnc2ccc(-c3nc4ccccc4o3)cc12,AC50,[1],"25.1 µM [falling, single point]"
COc1ccc(-n2c(Cc3cccn3C)nnc2SCC(=O)Nc2cc(Cl)ccc2OC)cc1,AC50,[1],"6.31 µM [falling, partial curve]"
CCn1c(NC(=O)Nc2ccccc2OC)nc2ccccc21,AC50,[1],"0.398 µM [falling, full curve]"
COc1cccc(C2Nc3ccccc3-c3nnc(SCc4ccccc4)nc3O2)c1OC (stereo not given),AC50,[1],"12.6 µM [falling, partial curve]"
Cc1ccc(S(=O)(=O)c2nc(-c3ccccc3)oc2SCC(=O)NC2CCCCC2)cc1,AC50,[1],"15.8 µM [falling, partial curve]"

# Laid out differently: entries from further up.
structure (smiles)	measurement	setting	value
COc1ccc(C2CC(=O)N(CC(=O)Nc3ccc(C(F)(F)F)cc3)c3ccccc3S2)cc1 (stereo not given)	AC50	[1]	3.98 µM [falling, partial curve]
CN(Cc1ccccc1)c1nc2c(c(=O)n(C)c(=O)n2C)n1CCCc1ccccc1	AC50	[1]	25.1 µM [falling, partial curve]
COC(=O)c1ccc(OC)c(Cn2c(=O)n(-c3ccc(C)cc3)c(=O)c3c2cnn3C)c1	AC50	[1]	15.8 µM [falling, partial curve]
COc1ccc(C(=O)Nc2ccc3nc(SCC(=O)N4CCOCC4)sc3c2)cc1	AC50	[1]	6.31 µM [falling, partial curve]
CCOC(=O)C1=C(CNCCc2ccc(Cl)cc2)NC(=O)NC1c1ccc2c(c1)OCO2 (stereo not given)	AC50	[1]	25.1 µM [falling, single point]
O=C(Cn1c(=O)nc(-c2ccccc2)c2cc(Cl)ccc21)NCCCc1ccccc1	AC50	[1]	15.8 µM [falling, partial curve]
COc1cc2nc(N3CCN(C(=O)[C@H]4COc5ccccc5O4)CC3)nc(N)c2cc1OC	AC50	[1]	39.8 µM [falling, partial curve, poor fit] [measured here: IkB-luc green channel]
COc1cccc(CNC(=O)c2c3c(nc4ccccc24)C(=O)N(C2CCCCC2)C3)c1	AC50	[1]	25.1 µM [falling, partial curve]
COc1ccc(-c2nc(SCC(=O)N3CCC(C)CC3)n[nH]2)cc1	AC50	[1]	39.8 µM [falling, single point]
